# From publication PMC12040169 (PLOS Biology, 2025)
# Some of the results follow.
# System: T1, CTL2-GFP (C. trachomatis L2/434/Bu, GFP-expressing)
# T1 construct: L2/434/Bu, GFP-expressing
# Design: species or system HeLa; Intracellular C. trachomatis growth in HeLa cells, bulk GFP fluorescence relative to DMSO
# Details: bulk GFP, single well; 28.5 h, 10 µM; inhibitor
row,SMILES,% of control remaining
1,COCC(=O)NC[C@H]1C[C@@H]2CCN1C[C@@H]2c1cc(-c2ccccc2)nc(C)n1 [CBK289123],117.924%
2,Cc1cc(C)nc(Nc2n[nH]c(-c3ccc(N)cc3)n2)n1 [CBK267131],173.055%
3,CCCOC1CCCN(S(=O)(=O)c2cnc3ccsc3c2)C1 (stereo not shown) [CBK306367],118.108%
4,Cc1noc(C)c1NC(=O)N(Cc1ccc2ccccc2c1)CC1CCNCC1 [CBK049774],61.7987%
5,CCn1c2cc(C)sc2c2cnn(Cc3cccnc3)c(=O)c21 [CBK284169],109.14%
6,CN(C)[C@H]1CC[C@@H](Cc2ccccc2)C[C@@H]1NC(=O)c1ccc(Cl)c(Cl)c1 [CBK012488],53.5609%
7,N#Cc1cc2c(nc1SCC(O)COCc1ccccc1)CCCC2 (stereo not shown) [CBK265967],89.283%
8,CCN(C(=O)c1ccc(C)nc1)[C@H]1CCO[C@@H](c2cccc(-c3cc(F)cc(F)c3)c2)C1 [CBK285856],118.354%
9,Cc1cccc(C)c1NC(=O)CSc1nnc(-c2cccnc2)n1Cc1ccccc1 [CBK265620],105.535%
10,N#C/C(=C/c1ccc(OCc2cccc(C(=O)O)c2)cc1)c1ccc([N+](=O)[O-])cc1 [CBK266626],107.729%
11,O=c1[nH]c2ncc(-c3cccc4cccnc34)nc2n1C1CCCCC1 [CBK064215],106.085%
12,Cc1cccn2c(=O)c(/C=C3\SC(=S)N(C(C)c4ccccc4)C3=O)c(NCCCn3ccnc3)nc12 (stereo not shown) [CBK263836],141.493%
13,O=C(CSc1ccc(Cl)cc1)Nc1cc(C(=O)O)cc(C(=O)O)c1 [CBK266531],112.024%
14,COc1ccc(OCCNC(=O)c2ccccc2-n2cccc2)cc1 [CBK149592],104.981%
15,Cc1cc(=O)oc2cc(OCc3ccc(S(=O)(=O)N4CCOCC4)cc3)ccc12 [CBK267402],131.956%
16,CC(=O)N1CCC(C(=O)Nc2cnc(-c3ccc(F)c(Cl)c3)c(-c3cccnc3)n2)CC1 [CBK036719],78.5737%
17,CCC1CCCCN1C(=O)c1cccc(C(=O)OC)c1 (stereo not shown) [CBK083195],55.8556%
18,O=C(Cn1cccc(C(=O)NC2CCCCC2)c1=O)NC1(c2ccccc2)CCCC1 [CBK286059],142.928%
19,O=C(NCCCN1CCCC1=O)c1cnc(-c2ccc(Cl)cc2)c(-c2ccncc2)c1 [CBK037545],143.615%
20,O=C(NCc1cccnc1)c1cc(Br)cnc1NCCOc1ccccc1 [CBK076265],94.2294%
21,Cc1ccc(S(=O)(=O)Nc2ccc(-c3cn4cccnc4n3)cc2)cc1[N+](=O)[O-] [CBK268936],105.99%
22,COCC(=O)N1CCc2sccc2C1c1ccc(NCc2ccc(C)o2)cc1 (stereo not shown) [CBK286447],120.254%
23,CC(C)CSc1nsc(N)n1 [CBK019938],100%
24,CN(CC1(C)COC1)C(=O)C1CC(=O)N(C(C)(C)C)C1 (stereo not shown) [CBK281724],129.055%
25,O=C(OCc1ccccc1F)c1cccc(-c2nnc(-c3ccccc3)o2)c1 [CBK267798],127.271%

row,SMILES,% of control remaining
1,O=C(CC1CCCCC1)Nc1ccc(Cl)nc1 [CBK091349],96.3191%
2,Cn1cc(C(=O)N2CCc3ncc(Cl)cc3C2)ccc1=O [CBK285130],132.617%
3,COc1ccc(C2(C(=O)NCc3cccs3)CC2)cc1 [CBK149831],113.497%
4,O=C(NCc1cccs1)c1ccc2[nH]ccc2c1 [CBK149060],118.796%
5,CCOC(=O)c1cccc(S(=O)(=O)NC(C)Cn2cncn2)c1 (stereo not shown) [CBK305820],132.893%
6,CN(C(=O)OC(C)(C)C)C1CN(C(c2ccccc2)c2ccccc2)C1 [CBK008111],124.005%
7,O=c1ccc2ccc(-c3cccc(OCc4ccccc4)c3)nc2[nH]1 [CBK073722],100%
8,O=C(O)CC1Cn2ncc(-c3ccccc3)c2NC1=O (stereo not shown) [CBK288187],117.1%
9,COC(=O)C1C2CCN(CC2)C1SCc1cccc(C(F)(F)F)c1 (stereo not shown) [CBK010829C],100%
10,CC(c1nc2ccccc2[nH]1)N1CCC2(CC1)NCCc1c2[nH]c2ccccc12 (stereo not shown) [CBK040061],90.7445%
11,O=C(Nc1cc2ccccc2c(N2CCNCC2)n1)c1cnccn1 [CBK036346T],112.121%
12,O=c1cc(-c2ccc(Br)cc2)nc2[nH]ccn12 [CBK016446],124.855%
13,CSCCC(C(=O)O)N1C(=O)C(=Cc2ccc(-c3cc(Cl)cc(Cl)c3)o2)SC1=S (stereo not shown) [CBK296984],170.305%
14,Cc1ccc(S(=O)(=O)N=C2NCN(CCOC(=O)c3ccc([N+](=O)[O-])cc3)CN2)cc1 [CBK265235],100%
15,Cn1c(=O)n(C)c2cc(CN3CCN(C4CCCC4)C(=O)C3)ccc21 [CBK281909],147.568%
16,O=S(=O)(Nc1ccc(N2CCCCC2)cc1)c1cccc2cccnc12 [CBK263077],118.486%
17,Cc1cc(I)cnc1NC(=O)CSc1ccc(Cl)cc1 [CBK266438],116.488%
18,CN1CCN(c2c(C(=O)O)cc([N+](=O)[O-])cc2[N+](=O)[O-])CC1 [CBK261519],100%
19,CCN(CC)C(=O)CN1C(=O)C2(Nc3ccccc3C(=O)N2c2ccc(C)cc2)c2ccccc21 (stereo not shown) [CBK093478],84.1686%
20,O=C(Nc1ccc(/C=C/c2ccccc2)cc1)c1ccc(COc2ccccc2)o1 [CBK267829],127.423%
21,CNCC1CCCN(Cc2cn(-c3ccc(Br)cc3)nc2C)C1 (stereo not shown) [CBK304301C],144.013%
22,Cc1oc(NC(=O)CN2CCN(c3ccccn3)CC2)c(C#N)c1C [CBK236456],77.1853%
23,Cc1cnn(C)c1CN1CCC(C(N)=O)(N2CCCCC2)CC1 [CBK304400],125.031%
24,COCC(=O)N[C@H]1CCN2C(=O)c3cc(-c4cccc(C)c4C)ccc3NC(=O)[C@@H]2C1 [CBK289562],135.778%

# Of the compounds above, 4 have fluorine.
row,SMILES,% of control remaining
8,CCN(C(=O)c1ccc(C)nc1)[C@H]1CCO[C@@H](c2cccc(-c3cc(F)cc(F)c3)c2)C1 [CBK285856],118.354%
16,CC(=O)N1CCC(C(=O)Nc2cnc(-c3ccc(F)c(Cl)c3)c(-c3cccnc3)n2)CC1 [CBK036719],78.5737%
25,O=C(OCc1ccccc1F)c1cccc(-c2nnc(-c3ccccc3)o2)c1 [CBK267798],127.271%
9,COC(=O)C1C2CCN(CC2)C1SCc1cccc(C(F)(F)F)c1 (stereo not shown) [CBK010829C],100%
